{"source": "patent US20070003636A1", "about": "“Statins (HMG-COA reductase inhibitors) as a novel type of immunomodulator, immunosuppressor and anti-inflammatory agent” (priority 2003, published 2007)", "experiment": "Mouse skin graft, internal controls (weight, blood cholesterol)", "assay_type": "in vivo"}
{"smiles": "CC(C)c1c(C(=O)Nc2ccccc2)c(-c2ccccc2)c(-c2ccc(F)cc2)n1CC[C@@H](O)C[C@@H](O)CC(=O)O", "note": "[Atorvastatin]", "values": [{"measurement": "blood cholesterol levels (total cholesterol, triglycerides)", "setting": "high statin dose 100 mg/kg/day in food", "result": "slight decrease"}, {"measurement": "blood cholesterol levels (total cholesterol, triglycerides)", "setting": "low statin dose 1 mg/kg/day in food, vs control", "result": "did not change"}]}
